Patent publication US8378115B2, “Monomethine dyes” (Thermo Fisher Scientific (Milwaukee) LLC, priority 2007, dated 2013)
Some results were stated once for a whole list of compounds, not compound by compound. Some ranges recur; such a range may be that of the whole group of compounds.

Assays:
[1] = tested on: 40mer dsDNA; assay: Fluorescence enhancement of dye with 40mer dsDNA; format: binding
Method: (§1) Stock solutions (8 mM) of each dye were prepared by dissolving each compound in dimethylsulfoxide (DMSO). Stock dye solutions were diluted to a desired concentration in tris-EDTA (TE) buffer (10 mM Tris, 1 mM EDTA, pH 8.0) immediately prior to use.
(§2) Stock solutions of λDNA and 40mer synthetic oligonucleotides (dsDNA and ssDNA), each at a concentration of 40 μM, were prepared in TE buffer. All DNA concentrations described are in base pairs of nucleotides. The DNA stock solutions were diluted to a desired concentration in TE buffer before being mixed with diluted dye solutions.
(§3) Fluorescence enhancement measurements of each dye were obtained by incubating dyes with λDNA, 40mer dsDNA, or 40mer ssDNA at a final concentration of 0.8 μM dye and 3.2 μM DNA for one minute. Fluorescence scans of the samples were performed with excitation wavelengths corresponding to the absorption maxima of the dyes. The resulting fluorescence intensities were compared to fluorescence intensities of Thiazole Orange (TO) and a compound equivalent to SYBR Green without the side chain (V02-06101), shown below,
(§4) [drawing 15] binding to λDNA, 40mer dsDNA, or 40mer ssDNA at a final concentration of 0.8 μM TO and 3.2 μM DNA for one minute, the same as for the tested dyes. The discrimination ratio between dsDNA and ssDNA was calculated by comparing the fluorescence intensities.

[2] = tested on: λDNA; assay: Fluorescence enhancement of dye with λDNA; format: binding; conditions: in the presence of DNA
Method: as §1, §2, §3, §4

SMILES	fluorescence intensities in the presence of dsDNA, times higher than in the presence of ssDNA [1]	fluorescence intensities, times higher than reference Thiazole Orange Dye [2] [times]
CCN(CCCN(C)C)c1ccc2c(/C=C3\Sc4ccccc4N3CC)cc(C(C)(C)C)[o+]c2c1 [Dye V02-07015]	1.4-3.7 times	4 to 8
CCN(CC)c1ccc2c(/C=C3\Sc4ccccc4N3C)cc(N(C)CCCN(C)C)[o+]c2c1 [Dye V02-07027]	1.4-3.7 times	4 to 8
CCN(CC)c1ccc2c(/C=C3\Sc4ccccc4N3C)cc(N3CC[N+](C)(CCO)CC3)[o+]c2c1 [Dye V11-03001]	1.4-3.7 times	4 to 8
CCN(CC)c1ccc2c(/C=C3\Sc4ccccc4N3C)cc(N3CCN(CCO)CC3)[o+]c2c1 [Dye V13-01184]	1.4-3.7 times	4 to 8
